Laboratory results as given in the supplement of paper PMC11732987, “Enantioselective OTUD7B fragment discovery through chemoproteomics screening and high-throughput optimisation” (Communications Chemistry, 2025).
This is one part of the list. The data scatter; read single values as rough.

The chains behind the UniProt entries cited, without tags or fusion partners. Where a name states a change or a piece, a line headed by the entry shows the natural chain unless it says otherwise. Residues count along the entry.
UniProt P51570: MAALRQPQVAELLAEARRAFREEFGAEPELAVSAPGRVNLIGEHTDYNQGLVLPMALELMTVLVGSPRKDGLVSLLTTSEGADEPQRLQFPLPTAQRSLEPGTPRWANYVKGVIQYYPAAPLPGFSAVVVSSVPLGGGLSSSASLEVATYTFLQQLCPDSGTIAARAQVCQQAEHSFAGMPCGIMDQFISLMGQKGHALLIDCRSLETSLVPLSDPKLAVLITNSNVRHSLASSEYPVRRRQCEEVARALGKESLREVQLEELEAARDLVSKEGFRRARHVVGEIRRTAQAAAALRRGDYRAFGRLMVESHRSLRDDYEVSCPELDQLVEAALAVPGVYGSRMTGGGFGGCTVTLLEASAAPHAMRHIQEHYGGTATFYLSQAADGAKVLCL
UniProt Q6PIJ6: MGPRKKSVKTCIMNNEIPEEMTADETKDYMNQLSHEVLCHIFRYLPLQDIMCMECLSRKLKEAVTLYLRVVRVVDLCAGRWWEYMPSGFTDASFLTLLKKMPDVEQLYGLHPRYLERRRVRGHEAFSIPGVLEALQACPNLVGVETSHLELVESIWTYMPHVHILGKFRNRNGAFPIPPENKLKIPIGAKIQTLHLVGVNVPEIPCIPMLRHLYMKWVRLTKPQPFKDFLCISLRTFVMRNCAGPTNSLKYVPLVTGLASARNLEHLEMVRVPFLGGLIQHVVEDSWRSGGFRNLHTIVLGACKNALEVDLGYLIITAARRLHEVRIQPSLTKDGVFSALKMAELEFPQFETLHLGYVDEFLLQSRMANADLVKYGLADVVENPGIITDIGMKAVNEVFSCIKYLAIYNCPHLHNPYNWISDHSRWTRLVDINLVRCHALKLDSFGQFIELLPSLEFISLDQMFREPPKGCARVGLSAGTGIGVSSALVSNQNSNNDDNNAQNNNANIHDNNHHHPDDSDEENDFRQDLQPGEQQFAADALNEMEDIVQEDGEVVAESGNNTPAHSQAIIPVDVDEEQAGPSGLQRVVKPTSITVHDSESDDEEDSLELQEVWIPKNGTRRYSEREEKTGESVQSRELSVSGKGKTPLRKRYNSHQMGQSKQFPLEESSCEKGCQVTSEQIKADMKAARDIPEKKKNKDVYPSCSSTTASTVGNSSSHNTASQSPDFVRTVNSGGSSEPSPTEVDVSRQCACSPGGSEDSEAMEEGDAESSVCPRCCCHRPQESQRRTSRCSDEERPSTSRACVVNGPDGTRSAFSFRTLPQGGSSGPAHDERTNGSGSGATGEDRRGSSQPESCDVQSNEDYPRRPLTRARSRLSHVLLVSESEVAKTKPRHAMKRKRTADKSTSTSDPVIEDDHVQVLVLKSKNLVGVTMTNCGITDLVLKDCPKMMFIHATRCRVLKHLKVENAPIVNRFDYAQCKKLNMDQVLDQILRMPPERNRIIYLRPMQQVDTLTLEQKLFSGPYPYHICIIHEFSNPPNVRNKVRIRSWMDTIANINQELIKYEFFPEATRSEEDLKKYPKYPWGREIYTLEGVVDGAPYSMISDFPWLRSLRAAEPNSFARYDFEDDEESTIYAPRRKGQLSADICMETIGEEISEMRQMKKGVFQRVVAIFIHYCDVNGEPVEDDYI
UniProt P16591: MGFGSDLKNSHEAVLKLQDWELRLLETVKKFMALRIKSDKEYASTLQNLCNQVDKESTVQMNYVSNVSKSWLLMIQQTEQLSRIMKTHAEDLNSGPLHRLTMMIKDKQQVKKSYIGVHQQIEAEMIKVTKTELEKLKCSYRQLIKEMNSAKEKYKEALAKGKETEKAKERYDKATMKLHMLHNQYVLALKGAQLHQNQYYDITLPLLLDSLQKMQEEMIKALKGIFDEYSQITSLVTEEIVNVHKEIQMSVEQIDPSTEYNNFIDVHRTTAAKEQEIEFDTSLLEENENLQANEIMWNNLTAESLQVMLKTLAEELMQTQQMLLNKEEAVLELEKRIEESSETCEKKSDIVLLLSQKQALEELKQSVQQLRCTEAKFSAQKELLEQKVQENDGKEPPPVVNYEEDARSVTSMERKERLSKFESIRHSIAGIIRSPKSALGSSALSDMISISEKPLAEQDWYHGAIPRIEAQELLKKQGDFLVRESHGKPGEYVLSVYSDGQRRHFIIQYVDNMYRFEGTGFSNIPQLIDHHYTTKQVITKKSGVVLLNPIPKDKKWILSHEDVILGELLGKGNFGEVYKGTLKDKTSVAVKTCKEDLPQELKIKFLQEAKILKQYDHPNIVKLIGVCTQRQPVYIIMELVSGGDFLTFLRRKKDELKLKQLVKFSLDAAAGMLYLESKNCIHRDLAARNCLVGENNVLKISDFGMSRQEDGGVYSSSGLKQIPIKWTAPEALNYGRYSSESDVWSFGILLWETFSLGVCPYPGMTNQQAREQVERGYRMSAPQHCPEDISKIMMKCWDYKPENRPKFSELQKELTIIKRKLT
UniProt Q9UET6, 262-281: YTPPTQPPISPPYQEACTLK
UniProt Q9Y2H6, 549-573: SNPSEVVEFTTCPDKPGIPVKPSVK
UniProt Q9NY12, 88-107: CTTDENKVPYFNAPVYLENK
UniProt Q96IG2: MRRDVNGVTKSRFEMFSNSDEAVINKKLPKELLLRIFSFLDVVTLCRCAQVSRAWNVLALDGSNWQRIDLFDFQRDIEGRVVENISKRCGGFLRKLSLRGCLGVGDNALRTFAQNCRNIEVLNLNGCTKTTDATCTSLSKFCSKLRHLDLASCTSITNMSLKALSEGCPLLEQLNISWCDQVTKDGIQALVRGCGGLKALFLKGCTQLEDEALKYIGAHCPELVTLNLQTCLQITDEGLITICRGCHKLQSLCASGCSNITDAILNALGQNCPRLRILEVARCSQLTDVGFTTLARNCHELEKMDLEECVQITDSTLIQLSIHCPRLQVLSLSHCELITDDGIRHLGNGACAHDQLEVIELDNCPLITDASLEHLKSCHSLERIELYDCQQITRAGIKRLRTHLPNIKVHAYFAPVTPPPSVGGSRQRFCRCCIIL
UniProt Q14318: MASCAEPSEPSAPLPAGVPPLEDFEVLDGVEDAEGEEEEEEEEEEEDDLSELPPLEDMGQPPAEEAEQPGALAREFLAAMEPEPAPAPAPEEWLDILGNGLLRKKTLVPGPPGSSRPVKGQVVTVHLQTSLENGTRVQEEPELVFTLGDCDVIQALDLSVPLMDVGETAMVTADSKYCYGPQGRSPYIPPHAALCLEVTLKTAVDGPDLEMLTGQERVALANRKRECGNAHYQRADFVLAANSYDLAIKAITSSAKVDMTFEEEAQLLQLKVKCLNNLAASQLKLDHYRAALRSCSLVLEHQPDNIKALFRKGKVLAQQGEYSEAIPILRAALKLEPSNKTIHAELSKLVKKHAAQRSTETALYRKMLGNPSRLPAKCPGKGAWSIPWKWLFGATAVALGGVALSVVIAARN
UniProt Q8TB52: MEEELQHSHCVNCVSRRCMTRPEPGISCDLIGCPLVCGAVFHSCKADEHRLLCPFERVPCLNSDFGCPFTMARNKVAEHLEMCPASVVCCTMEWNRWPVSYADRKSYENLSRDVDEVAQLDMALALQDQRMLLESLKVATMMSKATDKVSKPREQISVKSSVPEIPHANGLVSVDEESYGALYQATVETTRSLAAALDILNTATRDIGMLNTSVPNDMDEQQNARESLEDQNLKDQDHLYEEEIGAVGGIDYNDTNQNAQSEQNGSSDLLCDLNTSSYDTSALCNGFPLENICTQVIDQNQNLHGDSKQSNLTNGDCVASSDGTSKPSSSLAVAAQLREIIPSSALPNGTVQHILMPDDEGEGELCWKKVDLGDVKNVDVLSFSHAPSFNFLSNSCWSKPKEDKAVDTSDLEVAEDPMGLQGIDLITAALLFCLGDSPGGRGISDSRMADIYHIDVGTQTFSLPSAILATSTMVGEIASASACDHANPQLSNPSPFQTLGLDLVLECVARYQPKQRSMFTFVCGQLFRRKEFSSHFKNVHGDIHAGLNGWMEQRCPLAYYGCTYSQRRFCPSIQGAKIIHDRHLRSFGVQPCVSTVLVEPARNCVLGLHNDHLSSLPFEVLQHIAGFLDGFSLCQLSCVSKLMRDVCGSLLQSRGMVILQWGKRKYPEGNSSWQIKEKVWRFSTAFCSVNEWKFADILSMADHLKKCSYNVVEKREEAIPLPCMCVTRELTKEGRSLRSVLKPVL
UniProt O75879, 213-237: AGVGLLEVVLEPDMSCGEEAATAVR
UniProt Q53R41: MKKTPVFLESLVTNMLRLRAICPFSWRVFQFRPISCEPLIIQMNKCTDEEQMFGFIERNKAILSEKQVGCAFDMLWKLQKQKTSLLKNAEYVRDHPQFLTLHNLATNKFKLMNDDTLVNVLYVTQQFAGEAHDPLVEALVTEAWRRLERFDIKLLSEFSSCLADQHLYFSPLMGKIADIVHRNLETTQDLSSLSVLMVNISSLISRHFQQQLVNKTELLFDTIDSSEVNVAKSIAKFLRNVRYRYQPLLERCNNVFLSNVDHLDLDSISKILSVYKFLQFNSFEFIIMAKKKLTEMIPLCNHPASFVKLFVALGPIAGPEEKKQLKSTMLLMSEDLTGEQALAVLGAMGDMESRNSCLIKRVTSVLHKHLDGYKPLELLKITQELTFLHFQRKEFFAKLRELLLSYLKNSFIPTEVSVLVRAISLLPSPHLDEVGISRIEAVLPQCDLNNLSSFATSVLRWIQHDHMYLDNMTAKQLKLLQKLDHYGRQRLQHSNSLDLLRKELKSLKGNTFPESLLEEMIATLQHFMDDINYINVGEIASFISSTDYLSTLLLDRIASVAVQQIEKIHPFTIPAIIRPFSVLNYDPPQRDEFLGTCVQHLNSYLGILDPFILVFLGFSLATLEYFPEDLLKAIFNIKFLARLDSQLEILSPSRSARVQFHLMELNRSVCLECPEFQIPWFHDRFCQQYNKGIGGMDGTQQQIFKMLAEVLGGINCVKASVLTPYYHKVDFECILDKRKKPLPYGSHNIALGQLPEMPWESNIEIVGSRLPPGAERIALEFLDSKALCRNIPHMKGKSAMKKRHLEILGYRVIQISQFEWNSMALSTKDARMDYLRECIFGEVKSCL
UniProt O43716: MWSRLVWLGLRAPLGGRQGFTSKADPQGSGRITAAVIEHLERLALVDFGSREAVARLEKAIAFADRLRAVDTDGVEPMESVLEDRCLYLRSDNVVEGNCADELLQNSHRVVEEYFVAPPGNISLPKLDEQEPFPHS
UniProt Q9BQS8: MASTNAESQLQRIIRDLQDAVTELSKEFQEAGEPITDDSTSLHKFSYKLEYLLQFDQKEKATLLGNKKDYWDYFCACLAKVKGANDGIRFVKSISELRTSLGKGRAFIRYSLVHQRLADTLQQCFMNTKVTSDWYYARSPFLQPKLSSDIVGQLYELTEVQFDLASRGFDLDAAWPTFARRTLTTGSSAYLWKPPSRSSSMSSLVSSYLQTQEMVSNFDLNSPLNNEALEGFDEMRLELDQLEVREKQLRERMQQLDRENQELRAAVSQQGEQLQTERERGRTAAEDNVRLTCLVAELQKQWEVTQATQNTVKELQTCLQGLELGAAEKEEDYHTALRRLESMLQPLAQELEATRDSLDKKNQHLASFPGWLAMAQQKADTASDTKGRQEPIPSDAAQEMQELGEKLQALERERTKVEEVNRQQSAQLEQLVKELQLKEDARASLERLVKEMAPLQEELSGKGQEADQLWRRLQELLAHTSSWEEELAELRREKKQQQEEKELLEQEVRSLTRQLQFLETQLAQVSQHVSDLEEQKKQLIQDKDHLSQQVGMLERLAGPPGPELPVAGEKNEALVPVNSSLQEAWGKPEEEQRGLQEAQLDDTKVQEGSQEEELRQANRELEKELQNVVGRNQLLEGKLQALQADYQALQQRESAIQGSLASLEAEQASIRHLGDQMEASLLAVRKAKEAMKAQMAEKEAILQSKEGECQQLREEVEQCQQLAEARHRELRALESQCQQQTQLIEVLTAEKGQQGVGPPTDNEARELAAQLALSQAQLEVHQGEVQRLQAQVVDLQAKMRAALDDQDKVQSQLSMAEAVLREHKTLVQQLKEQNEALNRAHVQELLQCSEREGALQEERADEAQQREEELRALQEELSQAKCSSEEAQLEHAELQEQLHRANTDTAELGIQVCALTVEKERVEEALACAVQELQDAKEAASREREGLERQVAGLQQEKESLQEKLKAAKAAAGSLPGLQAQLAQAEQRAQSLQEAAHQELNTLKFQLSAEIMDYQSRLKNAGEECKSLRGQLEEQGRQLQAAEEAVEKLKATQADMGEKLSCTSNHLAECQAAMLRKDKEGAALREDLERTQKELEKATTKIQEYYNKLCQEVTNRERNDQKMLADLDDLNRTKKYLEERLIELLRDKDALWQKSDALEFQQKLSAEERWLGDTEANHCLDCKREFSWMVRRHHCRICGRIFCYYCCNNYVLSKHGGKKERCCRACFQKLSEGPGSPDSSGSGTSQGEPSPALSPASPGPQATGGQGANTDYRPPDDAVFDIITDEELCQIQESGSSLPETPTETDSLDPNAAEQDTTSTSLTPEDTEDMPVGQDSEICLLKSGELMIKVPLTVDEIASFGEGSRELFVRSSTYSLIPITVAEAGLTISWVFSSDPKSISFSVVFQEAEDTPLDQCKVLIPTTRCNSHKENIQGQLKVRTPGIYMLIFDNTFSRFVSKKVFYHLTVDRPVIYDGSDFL

compound: ClCC(=O)N[C@H]1CCCc2ccccc12; test: log2 mean competition ratio of IA-DTB cysteine labelling (DMSO/compound) (log2 ratio); higher = stronger cysteine engagement by compound; conditions: 200 µM; treatment time: 4 h; cell line lysate: HEK293T
Description: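 IA-DTB competitive cysteine chemoproteomics in HEK293T RIPA lysate. Lysates were treated with compound 29 or 30 at 50 or 200 µM for 4 h, then IA-DTB (500 µM, 1 h), trypsin-digested, NeutrAvidin-enriched and analysed by diaPASEF. Competition ratio = intensity DMSO / intensity compound (n=4 treated, n=64 DMSO); binding: mean log2 CR ≥ 1 and p ≤ 0.05 plus QC filters. Target is the cysteine site.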

Target	log2 mean competition ratio
FLNA C1157	-0.583
FBLN1 C373 (UniProt P23142)	0.117
GALK1 C243 (UniProt P51570)	0.327
GARRE1 C573	0.161
FBXL18 C324 (UniProt Q96ME1)	-0.00256
FBXO38 C401 (UniProt Q6PIJ6)	-0.309
FER C593 (UniProt P16591)	0.105
FER C690 (UniProt P16591)	0.144
FTSJ1 C278 (UniProt Q9UET6)	0.0302
FNDC3A C560 (UniProt Q9Y2H6)	-0.294
FLNA C1402	0.0913
GAR1 C88 (UniProt Q9NY12)	-0.0725
FBXL20 C101 (UniProt Q96IG2)	0.266
FOXC1 C233	-0.149
FBXW9 C240 (UniProt Q5XUX1)	-0.198
FOXM1 C56	0.196
FKBP8 C227 (UniProt Q14318)	0.062
FBXO30 C592 (UniProt Q8TB52)	0.297
FASN C1992	-0.253

10 entries from above in another layout:
Target,log2 mean competition ratio
FER C690 (UniProt P16591),0.144
FTSJ1 C278 (UniProt Q9UET6),0.0302
FNDC3A C560 (UniProt Q9Y2H6),-0.294
FLNA C1402,0.0913
GAR1 C88 (UniProt Q9NY12),-0.0725
FBXL20 C101 (UniProt Q96IG2),0.266
FOXC1 C233,-0.149
FBXW9 C240 (UniProt Q5XUX1),-0.198
FOXM1 C56,0.196
FKBP8 C227 (UniProt Q14318),0.062

Carrying on:

Target	log2 mean competition ratio
FIG4 C842 (UniProt Q92562)	0.223
GAMT C220 (UniProt Q14353)	-0.21
FBXL19 C246 (UniProt Q6PCT2)	0.282
FNDC3A C211 (UniProt Q9Y2H6)	0.139
FHIP1A C270	0.511
GATB C228 (UniProt O75879)	0.0508
GAPDH C247 (UniProt P04406)	-0.341
FCSK C970 (UniProt Q8N0W3)	0.589
FRYL C1177 (UniProt O94915)	-0.143
FASTKD1 C686 (UniProt Q53R41)	0.0974
FASN C1881	-0.629
FHL1 C65 (UniProt Q13642)	-0.0239
FNTA C341	0.332
GABPB1 C331 (UniProt Q06547)	-0.0403
FLNA C2107	0.0247
GATC C99 (UniProt O43716)	0.0164
FXYD6 C63	-0.0968
FYCO1 C848 (UniProt Q9BQS8)	0.417
